Laboratory results from PMC8115288.
Results are given in words; binding and its absence hold for the method and conditions named.

The chains behind the UniProt entries cited, without tags or fusion partners. Residues count along the entry.
UniProt Q12824, residues 183-265: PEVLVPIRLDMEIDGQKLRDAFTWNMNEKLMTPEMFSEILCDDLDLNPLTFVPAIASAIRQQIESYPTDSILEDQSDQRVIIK

Target: INI1_(183-265) (Rpt1+linker domain of INI1/SMARCB1), His6-SUMO tag removed (UniProt Q12824)
Test: AUC + other: NMR self-diffusion; sedimentation velocity at 25 °C, absorbance at 280 nm, 20 mM HEPES pH 7.5, 300 mM NaCl, 2 mM DTT, 5 % glycerol; both purified

binding: no binding
Substance: INI1_(183-265) (Rpt1+linker domain of INI1/SMARCB1), His6-SUMO tag removed (from UniProt Q12824 183-265) (domain or fragment)
